The assay has as its system BDF1 mice, B16 melanoma ip, median survival T/C. Briefly: NCI In Vivo Anticancer Drug Screen. Data for tumor model B16 Melanoma (intraperitoneal) in B6D2F1 (BDF1) mice. The following applies: T/C endpoint: median survival time, higher T/C = longer survival. An outline of the steps: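 In this screen, activity was judged from survival or tumor size in treated versus vehicle-treated tumor-bearing mice, reported as T/C.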

[1] abbreviates: dose: 300.0 mg/kg/injection, schedule: Q04DX003 (ip), vehicle: saline with Tween-80.
Setting [2] is: dose: 400.0 mg/kg/injection, schedule: Q01DX009 (ip), vehicle: saline with Tween-80.
Setting [3] is: dose: 200.0 mg/kg/injection, schedule: Q01DX009 (ip), vehicle: Klucel (hydroxypropylcellulose) (HPC).
The mark [4] stands for this setting: dose: 400.0 mg/kg/injection, schedule: Q01DX009 (ip), vehicle: Klucel (hydroxypropylcellulose) (HPC).
The mark [5] stands for this setting: dose: 25.0 mg/kg/injection, schedule: Q01DX009 (ip), vehicle: Klucel (hydroxypropylcellulose) (HPC).
The mark [6] stands for this setting: dose: 0.25 mg/kg/injection, schedule: Q01DX009 (ip), vehicle: saline.
The mark [7] stands for this setting: dose: 4.0 mg/kg/injection, schedule: Q01DX009 (ip), vehicle: saline.
Where [8] appears, read: dose: 200.0 mg/kg/injection, schedule: Q01DX009 (ip), vehicle: saline with Tween-80.
Setting [9] is: dose: 3.0 mg/kg/injection, schedule: Q01DX009 (ip), vehicle: Klucel (hydroxypropylcellulose) (HPC).
Where [10] appears, read: dose: 6.0 mg/kg/injection, schedule: Q01DX009 (ip), vehicle: Klucel (hydroxypropylcellulose) (HPC).
Setting [11] is: dose: 12.0 mg/kg/injection, schedule: Q01DX009 (ip), vehicle: Klucel (hydroxypropylcellulose) (HPC).

This note sets out measurements from PubChem BioAssay AID192 (DTP/NCI, 2004).

The list shows only some results of the screen, not a fair sample: it gathers tests that were run many times, whatever their T/C, doses with no T/C, and many T/C values between a quarter and a half above the control. Further doses and runs are listed elsewhere. T/C is the treated group as % of the vehicle group. Some entries give survivors of the animals treated and no T/C: the source files T/C as zero there, which appears to mark a toxic dose or a test without result, not a measured value. Some doses without a T/C left all or most animals alive at the check, yet need not have been tolerated: the source hardly ever lists a survival T/C far under the control, and the zero likely stands for such cases as well. Counts of survivors are from the toxicity check (mostly the fifth day) where no day follows; animals may have died later. Schedule codes are those of the source, read here as Q, the interval in days (D) or hours (H), X, the number of doses. Some doses were run more than once; the results are listed from low to high. Where survival is the endpoint, this PubChem deposit counts one and a half times the control or more as active, and values a quarter to a half above the control carry no call in these data; other NCI protocols may use other cut-offs.

Take `CC(=O)OC1C2(CC3N4C(=O)C5(CO)SSC4(CC31O)C(=O)N5C)OC(C)C(C)(C)C2=O` (stereo not drawn): the survivor count (dose: 1.25 mg/kg/injection, schedule: Q01DX009 (ip), vehicle: saline) is listed as 8 of 10; the survivor count (dose: 2.5 mg/kg/injection, schedule: Q01DX009 (ip), vehicle: saline) is reported as 1 of 10; the survivor count (dose: 5.0 mg/kg/injection, schedule: Q01DX009 (ip), vehicle: saline) was 0 of 10; the survivor count (dose: 10.0 mg/kg/injection, schedule: Q01DX009 (ip), vehicle: saline) is recorded as 1 of 10.

As for `Nc1ccc2ccc(O)cc2c1`, the survivor count under setting [1] is 0 of 10.

Regarding `FC(F)(F)c1ccc2c(c1)N(CCCN1CCN(CCOCCCl)CC1)c1ccccc1S2`, the survivor count runs as follows: (dose: 1.17 mg/kg/injection, schedule: Q04DX003 (ip), vehicle: saline) 10 of 10; (dose: 3.12 mg/kg/injection, schedule: Q01DX009 (ip), vehicle: saline) 10 of 10.

On to `CCOC(=O)CC(SP(=S)(OC)OC)C(=O)OCC` (stereo not drawn), for which the survivor count under setting [2] was 0 of 10 and 4 of 10; the survivor count (dose: 400.0 mg/kg/injection, schedule: Q01DX009 (ip), vehicle: saline) is given as 5 of 10.

Take `CSc1nc2ccccc2s1`: under setting [3], the survivor count is given as 6 of 10.

With `CCC/C=C(/CC(=O)O)C(=O)O`, the survivor count (dose: 150.0 mg/kg/injection, schedule: Q04DX003 (ip), vehicle: saline with Tween-80) is given as 10 of 10 and the survivor count under setting [1] is reported as 10 of 10.

In the case of `O=[N+]([O-])c1ccc2nc(-c3ccccc3)c(-c3ccccc3)nc2c1`, the survivor count under setting [4] is given as 9 of 10.

Consider `CC1(C)N=C(N)N=C(N)N1c1cccc(CCCCc2ccc(Cl)c(S(=O)(=O)F)c2)c1`, for which the survivor count runs as follows: under setting [5], 3 of 10; (dose: 50.0 mg/kg/injection, schedule: Q01DX009 (ip), vehicle: Klucel (hydroxypropylcellulose) (HPC)) 1 of 10.

On to `COC1CC(C)C(OC)C2=CC(=O)C=C(NC(=O)/C(C)=C/C=C\C(C)C(OC(N)=O)/C(C)=C\C(C)C1OC)C2=O` (stereo not drawn), for which the survivor count (dose: 20.0 mg/kg/injection, schedule: Q01DX009 (ip), vehicle: saline + alcohol) was 10 of 10.

Take `COc1cc([C@@H]2c3cc4c(cc3[C@@H](OC3OC5CO[C@@H](c6cccs6)OC5C(O)C3O)[C@H]3COC(=O)[C@H]23)OCO4)cc(OC)c1O` (stereo partly drawn): the T/C under setting [6] was 135 % of control. The survivor count is recorded as 6 of 6 (dose: 4.0 mg/kg/injection, schedule: Q01DX009 (ip), vehicle: clinical formulation); 6 of 6 under setting [7]; 10 of 10 (dose: 4.0 mg/kg/injection, schedule: Q01DX009 (ip), vehicle: water).

In the case of `CCCCCCCCCCCCCCC/C([O-])=N/[N+](C)(C)CC(C)O` (stereo not drawn), the survivor count reads like this: (dose: 400.0 mg/kg/injection, schedule: Q01DX001 (ip), vehicle: saline) 10 of 10; (dose: 800.0 mg/kg/injection, schedule: Q01DX001 (ip), vehicle: saline) 3 of 10.

For `Cc1cc2ccc(OC(=O)c3ccc(N=C(N)N)cc3)cc2oc1=O`, the survivor count is listed as 10 of 10 (dose: 50.0 mg/kg/injection, schedule: Q01DX009 (ip), vehicle: saline with Tween-80); 10 of 10 under setting [8]; 10 of 10 under setting [2].

As to `Cc1cc(O)c2c(c1O)C(=O)c1cccc(O)c1C2=O`, the survivor count is, setting by setting: under setting [9], 5 of 10; under setting [10], 0 of 10; under setting [11], 0 of 10.

For `Cc1ccc(NC(=O)c2ccc(C(=O)Nc3ccc(C)cc3)cc2)cc1`, the survivor count (dose: 100.0 mg/kg/injection, schedule: Q01DX009 (ip), vehicle: saline with Tween-80) is on record as 10 of 10; the survivor count under setting [8] was 9 of 10; the survivor count under setting [2] is 10 of 10.

Consider `C/C=C(/C)C(=O)O[C@H]1CCN2CC=C(COC(=O)[C@@](O)([C@H](C)OC)C(C)(C)O)[C@H]12`, for which the survivor count runs as follows: (dose: 50.0 mg/kg/injection, schedule: Q01DX009 (ip), vehicle: saline) 6 of 6; (dose: 100.0 mg/kg/injection, schedule: Q01DX009 (ip), vehicle: saline) 5 of 6.

In the case of `CCC1CC(O)c2c(O)c3c(c(O)c2C1O)C(=O)c1cccc(O)c1C3=O` (stereo not drawn) (tested in a mixture with another compound), the survivor count is, setting by setting: (dose: 0.06 mg/kg/injection, schedule: Q01DX009 (ip), vehicle: saline) 10 of 10; (dose: 0.12 mg/kg/injection, schedule: Q01DX009 (ip), vehicle: saline) 10 of 10; under setting [6], 9 of 10 and 10 of 10; (dose: 0.25 mg/kg/injection, schedule: Q04DX003 (ip), vehicle: saline) 8 of 10 and 10 of 10; (dose: 0.5 mg/kg/injection, schedule: Q01DX009 (ip), vehicle: saline) 9 of 10; (dose: 0.5 mg/kg/injection, schedule: Q04DX003 (ip), vehicle: saline) 10 of 10. Moreover, the survivor count is 7 of 10 (dose: 1.0 mg/kg/injection, schedule: Q01DX009 (ip), vehicle: saline); 8 of 10 and 10 of 10 (dose: 1.0 mg/kg/injection, schedule: Q04DX003 (ip), vehicle: saline); 7 of 10 (dose: 2.0 mg/kg/injection, schedule: Q01DX009 (ip), vehicle: saline); 6 of 10 (dose: 2.0 mg/kg/injection, schedule: Q04DX003 (ip), vehicle: saline); 5 of 10 under setting [7]; 1 of 10 (dose: 4.0 mg/kg/injection, schedule: Q04DX003 (ip), vehicle: saline). Besides, the survivor count (dose: 125.0 micrograms/kg/injection, schedule: Q01DX009 (ip), vehicle: saline) was 10 of 10. The T/C was 127 % of control (dose: 7.0 micrograms/kg/injection, schedule: Q01DX009 (ip), vehicle: saline); 125 % of control (dose: 31.0 micrograms/kg/injection, schedule: Q01DX009 (ip), vehicle: saline); 130 % of control (dose: 62.0 micrograms/kg/injection, schedule: Q01DX009 (ip), vehicle: saline).

For `Nc1ccccc1SC1CC(=O)N(c2cccc(Cl)c2)C1=O` (stereo not drawn), the survivor count under setting [4] is 9 of 10.

As to `CCC[CH2][Sn]1([CH2]CCC)[O]C2C(CO)OC(n3ccc(N)nc3=O)C2[O]1` (stereo not drawn), the survivor count by setting is: (dose: 0.38 mg/kg/injection, schedule: Q01DX009 (ip), vehicle: Klucel (hydroxypropylcellulose) (HPC)) 10 of 10; (dose: 0.75 mg/kg/injection, schedule: Q01DX009 (ip), vehicle: Klucel (hydroxypropylcellulose) (HPC)) 10 of 10; (dose: 1.5 mg/kg/injection, schedule: Q01DX009 (ip), vehicle: Klucel (hydroxypropylcellulose) (HPC)) 10 of 10; under setting [9], 9 of 10; under setting [10], 10 of 10; under setting [11], 1 of 10. The survivor count is 0 of 10 and 6 of 10 (dose: 12.5 mg/kg/injection, schedule: Q01DX009 (ip), vehicle: Klucel (hydroxypropylcellulose) (HPC)); 0 of 10 under setting [5]. For the same compound, the T/C is, setting by setting: (dose: 0.78 mg/kg/injection, schedule: Q01DX009 (ip), vehicle: Klucel (hydroxypropylcellulose) (HPC)) 136 % of control; (dose: 1.56 mg/kg/injection, schedule: Q01DX009 (ip), vehicle: Klucel (hydroxypropylcellulose) (HPC)) 148 % of control; (dose: 3.12 mg/kg/injection, schedule: Q01DX009 (ip), vehicle: Klucel (hydroxypropylcellulose) (HPC)) 141 % of control.

In the case of `CCCCC(CC)CCC(O)CCC(CC)CC` (stereo not drawn), the survivor count under setting [3] was 10 of 10.

`Cc1ccc(C)c(C(O)C2CC2)c1` (stereo not drawn): the survivor count under setting [8] is 10 of 10.
